Results as given in PubChem BioAssay AID2417 (National Center for Advancing Translational Sciences (NCATS), 2010).
Among all 140,000 compounds or so, about 4,300 (3.1%) were called active. The shares of active, inactive and inconclusive entries below differ from those in the screen.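 The calls were made as follows: active = readout at or below -70, meaning at least 70% loss of cells showing the perinucleolar compartment, a nuclear body marking cancer cells; inconclusive = readout between -30 and a set limit; inactive = the rest.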

Assay: High Content Assay for Compounds that inhibit the Assembly of the Perinucleolar Compartment;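 also: plate controls were DMSO wells for no effect and camptothecin positive control wells for full effect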
Settings: PC3M PTB-GFP, PNC prevalence imaging, 16 h; at 10 µM; stronger effect = lower value
Outline: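 Read-out is percentage of cells bearing a perinucleolar compartment, from automated 20x imaging of fixed, Hoechst-stained PC3M PTB-GFP cells. Cells were seeded 4 h, then exposed 16 h to compound (23 nl of library stock) in duplicate plates.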

SMILES	activity change (PNC), negative = inhibition
O=[N+]([O-])c1ccc(N/N=C/c2cn(-c3ccccc3)nc2-c2ccccc2)cc1	inconclusive: -35.5%
Cc1cc(NC(=O)c2ccccc2NS(=O)(=O)c2c(C)c(C)cc(C)c2C)no1	inactive: -9.21%
CC(OC(=O)c1cc2sccc2n1C)C(=O)NCCc1ccccc1 (stereo unspecified)	inconclusive: -54.1%
O=C(CCSc1ccccc1)N1CCOCC1	inconclusive: -74.2%
Brc1cc2c(cc1C1Nc3ccccc3C3C=CCC31)OCO2 (stereo unspecified)	inconclusive: -50.5%
Cc1cc(C)cc(OC2CCCCC2NS(=O)(=O)c2ccccc2)c1 (stereo unspecified)	inconclusive: -46.7%
CCOC(=O)c1ccc(Nc2cc(C)nc3ncnn23)cc1	inconclusive: -51%
COc1cccc(C2Nc3c(F)cc(Br)cc3C3C=CCC32)c1OC (stereo unspecified)	inactive: 21%
CC(=O)c1cnc2cc(-c3ccccc3)nn2c1C	inconclusive: -54.8%
COc1ccc(CN2C(=S)NC(C)(C)CC2(C)O)cc1 (stereo unspecified)	inconclusive: -43.2%
CCOC(=O)C1CCCN(C(=O)COc2ccccc2O)C1 (stereo unspecified)	inconclusive: -39.8%
COC(=O)C1CCN(c2nc3ccccc3nc2C(C#N)C(=O)OCC(C)C)CC1 (stereo unspecified)	active: -83.3%
CCOc1ccc(S(=O)(=O)Nc2nc3ccccc3nc2Nc2ccc(N3CCOCC3)cc2)cc1	inconclusive: -63.3%
O=C(Nc1nnc(-c2ccc(Cl)cc2)o1)c1nc2ccccc2s1	inconclusive: -51.7%
COCCn1c(SCC(=O)N2CCCc3ccccc32)nc2c(c1=O)SC(C)C2 (stereo unspecified)	active: -108%
COc1cccc2cc(C(=O)N3CCN(c4ccccn4)CC3)c(=O)oc12	inconclusive: -60.6%
O=C(OCC(=O)N1CCN(C(=O)c2ccco2)CC1)c1ccccc1Cc1ccccc1	inconclusive: -78.4%
Cc1cnc(C)c(N(C)NC(=S)Nc2ccccc2)n1	active: -109%
COC(=O)C(OC(=O)c1ccc(OC)cc1)C(=O)OC	active: -100%
CCN(CC)c1ccc(/C=N/Nc2nc3ccccc3[nH]2)c(O)c1	inconclusive: -50.8%
CN(Cc1nc(-c2ccccn2)no1)S(=O)(=O)c1ccc(Br)cc1	inactive: 20.7%
Cc1cccc(NC(=O)CCn2ccnc2C)c1	inconclusive: -35.6%
Cc1ccc(C)c(S(=O)(=O)N2CCCOC2CNC(=O)C(=O)NCCCn2ccnc2)c1 (stereo unspecified)	inconclusive: -38.3%

An excerpt of these results, field by field:
COc1ccc(CN2C(=S)NC(C)(C)CC2(C)O)cc1 (stereo unspecified)
  activity change (PNC), negative = inhibition: inconclusive: -43.2%
CN(Cc1nc(-c2ccccn2)no1)S(=O)(=O)c1ccc(Br)cc1
  activity change (PNC), negative = inhibition: inactive: 20.7%

Remaining list, next part.

SMILES	activity change (PNC), negative = inhibition
Cc1ccc2nc(-c3ccc(NC(=O)CN(c4ccccc4C)S(C)(=O)=O)cc3)sc2c1	inconclusive: -32.2%
CCOCC(=O)Nc1cc(C(=O)OC)cc(C(=O)OC)c1	inactive: -5.39%
CCOC(=O)N1CCN(S(=O)(=O)c2ccc(C(=O)Nc3nc4ccc(F)cc4s3)cc2)CC1	inactive: -6.43%
CCOc1ccc(/C=N/NC(=O)c2ccccc2NC(=O)c2ccc(OC)cc2)cc1	inconclusive: -64.5%
CCOC(=O)C1=C(NC(=S)NC(=O)c2ccccc2)c2ccccc2CC1C(C)C (stereo unspecified)	active: -96.1%
Cc1nc(NC(=O)C2CC3CCCC(C2)C3=O)sc1C (stereo unspecified)	active: -122%
O=C1C=C(c2ccccc2)C[C@H](c2cccs2)[C@H]1n1cnc([N+](=O)[O-])c1	inactive: -6.57%
COCCN(C(=O)CNC(=O)c1ccco1)C(C(=O)NC1CCCCC1)c1cccc(OC)c1 (stereo unspecified)	inconclusive: -55.5%
O=C(NCC1CCCO1)/C(=C/c1ccc(Cl)cc1)NC(=O)c1ccccc1 (stereo unspecified)	inconclusive: -69.3%
Cc1ccc([N+](=O)[O-])cc1NC(=O)CCSc1ccc(Cl)cc1	inconclusive: -65.9%
N#CCCN1CCN(S(=O)(=O)c2ccc(S(=O)(=O)N3CCCCCC3)cc2)CC1	inconclusive: -32.1%
N#CC1=C(N)Oc2n[nH]c(-c3cccs3)c2C1c1ccsc1 (stereo unspecified)	inconclusive: -47.5%
O=C(c1cccc2ccccc12)N1CCN=C1SCc1ccc([N+](=O)[O-])cc1	inconclusive: -53.3%
COc1ccccc1NC(=O)CS(=O)(=O)c1cccc2nsnc12	inconclusive: -46.8%
C=CCNC(=O)COc1ccc(Br)cc1Cl	active: -114%
CN1C(=O)N(C)C2(c3ccccc3)Nn3c(s/c(=C/c4ccccc4F)c3=O)=NC12c1ccccc1 (stereo unspecified)	inactive: -15.1%
C=CCOc1ccc(C(=O)CC)cc1OC	inactive: -9.43%
CCc1ccc(S(=O)(=O)NC(CC(=O)O)c2ccccc2)cc1 (stereo unspecified)	inconclusive: -36.4%
COc1cccc(NC(=O)N2CCCC2C(=O)NC2CC2)c1 (stereo unspecified)	inconclusive: -59.3%
O=C(CSc1nnc(-c2cccs2)n1-c1cccc(Cl)c1)c1cccc2c1OCCO2	inactive: -2.96%
N#CC1(C#N)CC(C=O)=C(N)C1(C#N)CC(=O)c1ccc(F)cc1 (stereo unspecified)	inactive: -6.5%
COc1ccccc1N1CCN(C(CNS(=O)(=O)c2cc(F)ccc2F)c2cccnc2)CC1 (stereo unspecified)	inactive: 2.81%
CCCS(=O)(=O)N1CCCC(c2nc(-c3ccc(OC)cc3)no2)C1 (stereo unspecified)	inconclusive: -54.1%
